Results deposited as PubChem BioAssay AID652259 (Drosophila RNAi Screening Center, 2013).
The deposit covers about 22,000 reagents; below is a random part of those that have a named target and a result. Of all reagents, 233 (1.1%) got an active call. 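Light values are raw, unnormalised plate reads; the ratio scores behind the reporter calls were not deposited.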 Names joined by + are all predicted targets of the reagent. Not given: the amount of reagent, the time to read-out, the dose of the treatment.

- Assay: 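Genome-wide hunt for genes that control Wingless pathway activity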 (primary screen)
- Cells: Drosophila clone 8 imaginal disc epithelial cells
- Knock-down reagent: long dsRNA against Drosophila genes
- Treatment: pathway stimulated by co-transfected Wingless expression plasmid
- Measured: 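Dual luciferase reads per well after Wingless plasmid stimulation: reporter firefly light and Renilla control light; activity is firefly divided by Renilla, a ratio not deposited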
- Direction: firefly reporter light: higher = more Wg reporter light, before normalisation; Renilla control light: higher = more transfected or surviving cells
- Active means: 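Strong candidates differ from their plate mean by at least two out of four per-plate statistical tests; weak candidates meet just one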
- Calls: active = candidate regulator (raises or lowers reporter); inactive = not a candidate

no.	target	DRSC id	reporter change call, replicate 1	firefly reporter light, replicate 1	firefly reporter light, replicate 2	Renilla control light, replicate 1	Renilla control light, replicate 2	Outcome
1	CG32214 (GeneID 317919)	DRSC09613		4396		2130		inactive
2	CG14105 (GeneID 39507)	DRSC10107		5189		2248		inactive
3	CG11588 (GeneID 39347)	DRSC09145		2733		1529		inactive
4	CG11588 (GeneID 39347)	DRSC09846		9468		4120		inactive
5	Or65c (GeneID 318013)	DRSC21312		5.73e5	8.58e5	3.49e5	2.97e5	inactive
6	CG12672 (GeneID 32781)	DRSC19482		19946		12188		inactive
7	kappaB-Ras + CG30503	DRSC06619		2167	5057	663	1174	inactive
8	kappaB-Ras + CG30503	DRSC07636		3364	7660	945	2557	inactive
9	CG14369 (GeneID 41660)	DRSC14831		19091		4313		inactive
10	PolZ2 (GeneID 40677)	DRSC12325		11092		2355		inactive
11	Urm1 (GeneID 2768949)	DRSC22941		6.09e5	6.02e5	2.85e5	1.94e5	inactive
12	CG14014 (GeneID 33784)	DRSC02345		2800	7638	1309	3736	inactive
13	CtsB (GeneID 32341)	DRSC19361		2619	5389	1094	1740	inactive
14	CG9922 (GeneID 41708)	DRSC16579		17683		5125		inactive
15	Cenp-C (GeneID 41014)	DRSC14371		14745		3161		inactive
16	Axn (GeneID 43565)	DRSC14120	Wg reporter activity raised	23689	37908	1305	2560	active
17	CG18088 (GeneID 34219)	DRSC02654		2157	4728	605	2428	inactive
18	cn (GeneID 35724)	DRSC07594		2570	7427	1139	2874	inactive
19	Idgf1 (GeneID 34978)	DRSC03349		9825		3012		inactive
20	CG34396 (GeneID 37398)	DRSC04245		3714	11344	760	3648	inactive
21	CG34396 (GeneID 37398)	DRSC04246		1830	6657	507	2082	inactive
22	CG6592 (GeneID 38687)	DRSC10669		1089	8336	664	2792	inactive
23	Kmn1 (GeneID 32102)	DRSC19666		19258		9643		inactive
24	Paip1 (GeneID 36913)	DRSC07302		11581		2699		inactive
25	CG18641 (GeneID 33429)	DRSC00527		2071	7715	898	2744	inactive
26	CG42369 (GeneID 33894)	DRSC03244		2749	4215	917	688	inactive
27	CG3634 (GeneID 40301)	DRSC11747		13369		3652		inactive
28	Ae2 (GeneID 39147)	DRSC08997		4464		1116		inactive
29	Ae2 (GeneID 39147)	DRSC10969		7346		2387		inactive

Entries listed above with an active call (1):
target	DRSC id	reporter change call, replicate 1	firefly reporter light, replicate 1	firefly reporter light, replicate 2	Renilla control light, replicate 1	Renilla control light, replicate 2	Outcome
Axn (GeneID 43565)	DRSC14120	Wg reporter activity raised	23689	37908	1305	2560	active
